From the supplement of paper PMC12823440, “Inhibitors supercharge kinase turnover through native proteolytic circuits” (Nature, 2025)
Where a name gives a salt, the structure may show the parent alone. The list shows a part of the results. The calls rarely recur for the same compound in another form.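 Kinases were expressed as nanoluciferase fusions in K562 cells and luminescence was read every 4 h between 2 and 18 h as percent of control, DMSO set to 100% and a positive control to 0%. A time point counts as decreased when the signal drops significantly (2 sigma). The hit call is the authors' own, does not follow from the count of time points alone, and its rule is not shown.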

By UniProt entry, the sequences of proteins in these tests, tags left out. Where a name states a change or a piece, a line headed by the entry shows the natural chain unless it says otherwise.
UniProt P29317, whole entry: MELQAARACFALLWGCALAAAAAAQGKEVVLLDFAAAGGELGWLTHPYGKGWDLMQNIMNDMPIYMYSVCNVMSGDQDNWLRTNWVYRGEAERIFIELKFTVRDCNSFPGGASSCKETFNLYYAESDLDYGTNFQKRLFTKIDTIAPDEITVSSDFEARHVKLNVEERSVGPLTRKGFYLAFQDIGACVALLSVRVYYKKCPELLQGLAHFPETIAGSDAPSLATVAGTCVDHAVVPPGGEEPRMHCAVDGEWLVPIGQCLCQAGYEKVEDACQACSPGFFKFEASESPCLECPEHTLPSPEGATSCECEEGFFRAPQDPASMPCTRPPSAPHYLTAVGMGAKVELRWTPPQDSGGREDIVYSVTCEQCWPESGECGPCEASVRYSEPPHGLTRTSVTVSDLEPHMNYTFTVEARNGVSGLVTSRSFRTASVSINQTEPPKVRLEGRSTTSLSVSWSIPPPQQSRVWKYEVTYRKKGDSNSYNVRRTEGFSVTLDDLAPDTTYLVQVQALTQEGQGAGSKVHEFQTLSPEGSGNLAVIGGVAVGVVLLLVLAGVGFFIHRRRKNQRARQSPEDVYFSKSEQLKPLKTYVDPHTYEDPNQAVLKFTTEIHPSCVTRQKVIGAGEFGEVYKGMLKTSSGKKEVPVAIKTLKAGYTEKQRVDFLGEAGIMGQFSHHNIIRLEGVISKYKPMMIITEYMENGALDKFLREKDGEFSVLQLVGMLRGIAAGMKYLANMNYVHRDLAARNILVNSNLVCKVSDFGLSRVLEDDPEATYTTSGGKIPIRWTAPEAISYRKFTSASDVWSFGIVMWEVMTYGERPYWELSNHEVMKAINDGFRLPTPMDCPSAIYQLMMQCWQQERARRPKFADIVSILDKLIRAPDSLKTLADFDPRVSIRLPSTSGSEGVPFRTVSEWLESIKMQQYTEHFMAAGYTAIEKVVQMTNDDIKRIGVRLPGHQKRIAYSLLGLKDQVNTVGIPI
UniProt Q15303, whole entry R711C: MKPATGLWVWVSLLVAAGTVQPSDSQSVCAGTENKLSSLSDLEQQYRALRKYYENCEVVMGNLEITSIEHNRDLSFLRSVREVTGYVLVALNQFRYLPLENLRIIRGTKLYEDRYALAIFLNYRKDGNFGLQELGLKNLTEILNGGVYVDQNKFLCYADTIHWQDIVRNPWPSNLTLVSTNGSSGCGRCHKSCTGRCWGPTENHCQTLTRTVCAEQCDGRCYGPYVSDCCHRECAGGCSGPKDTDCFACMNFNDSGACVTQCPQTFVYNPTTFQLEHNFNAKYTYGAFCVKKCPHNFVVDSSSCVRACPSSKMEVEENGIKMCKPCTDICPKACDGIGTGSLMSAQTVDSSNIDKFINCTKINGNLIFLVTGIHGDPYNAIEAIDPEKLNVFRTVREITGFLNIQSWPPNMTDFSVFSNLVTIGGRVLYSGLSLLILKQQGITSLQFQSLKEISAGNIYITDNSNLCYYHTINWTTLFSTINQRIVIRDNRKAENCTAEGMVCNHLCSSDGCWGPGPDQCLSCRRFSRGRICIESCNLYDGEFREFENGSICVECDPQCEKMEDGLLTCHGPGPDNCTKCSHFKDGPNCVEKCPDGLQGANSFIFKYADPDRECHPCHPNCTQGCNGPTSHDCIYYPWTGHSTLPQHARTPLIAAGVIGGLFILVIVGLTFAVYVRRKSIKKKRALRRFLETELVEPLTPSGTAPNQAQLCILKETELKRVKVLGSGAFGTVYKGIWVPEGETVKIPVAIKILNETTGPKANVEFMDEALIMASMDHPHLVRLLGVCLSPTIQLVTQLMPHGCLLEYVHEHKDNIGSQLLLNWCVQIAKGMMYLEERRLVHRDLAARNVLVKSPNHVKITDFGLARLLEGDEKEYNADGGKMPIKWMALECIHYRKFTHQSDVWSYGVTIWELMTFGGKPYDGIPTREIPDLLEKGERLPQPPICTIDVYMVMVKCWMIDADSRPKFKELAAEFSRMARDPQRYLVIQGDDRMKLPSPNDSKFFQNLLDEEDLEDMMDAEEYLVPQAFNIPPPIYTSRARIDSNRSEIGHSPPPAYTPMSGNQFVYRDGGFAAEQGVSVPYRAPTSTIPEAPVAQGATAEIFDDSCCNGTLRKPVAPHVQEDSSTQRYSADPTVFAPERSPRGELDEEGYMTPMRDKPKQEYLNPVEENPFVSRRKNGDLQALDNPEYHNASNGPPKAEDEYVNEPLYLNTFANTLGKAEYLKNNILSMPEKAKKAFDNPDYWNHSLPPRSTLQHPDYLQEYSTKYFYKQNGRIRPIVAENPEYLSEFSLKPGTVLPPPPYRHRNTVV
UniProt P11362, whole entry, looked up: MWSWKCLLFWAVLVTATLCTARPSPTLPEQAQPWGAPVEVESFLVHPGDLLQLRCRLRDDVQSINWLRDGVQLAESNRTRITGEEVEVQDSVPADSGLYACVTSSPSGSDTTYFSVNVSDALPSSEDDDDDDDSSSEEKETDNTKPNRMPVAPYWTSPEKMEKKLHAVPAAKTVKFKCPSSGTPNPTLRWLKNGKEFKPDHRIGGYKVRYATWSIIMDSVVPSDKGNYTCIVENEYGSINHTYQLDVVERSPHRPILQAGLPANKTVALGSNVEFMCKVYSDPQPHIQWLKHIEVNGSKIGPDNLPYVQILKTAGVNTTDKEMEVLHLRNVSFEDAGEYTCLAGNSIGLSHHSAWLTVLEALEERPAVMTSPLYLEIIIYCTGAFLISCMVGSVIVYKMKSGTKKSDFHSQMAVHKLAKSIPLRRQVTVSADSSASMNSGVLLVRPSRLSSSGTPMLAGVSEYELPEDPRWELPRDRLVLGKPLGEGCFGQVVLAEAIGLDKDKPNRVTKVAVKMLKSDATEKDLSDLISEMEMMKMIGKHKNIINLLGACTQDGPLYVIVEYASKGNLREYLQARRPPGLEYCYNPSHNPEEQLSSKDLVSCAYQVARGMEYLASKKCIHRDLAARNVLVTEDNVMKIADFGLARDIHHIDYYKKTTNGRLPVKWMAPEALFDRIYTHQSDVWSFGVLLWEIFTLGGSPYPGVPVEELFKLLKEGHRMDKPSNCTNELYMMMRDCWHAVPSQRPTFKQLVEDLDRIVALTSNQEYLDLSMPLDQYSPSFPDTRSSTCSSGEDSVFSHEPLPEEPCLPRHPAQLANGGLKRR
UniProt P21802, whole entry, looked up: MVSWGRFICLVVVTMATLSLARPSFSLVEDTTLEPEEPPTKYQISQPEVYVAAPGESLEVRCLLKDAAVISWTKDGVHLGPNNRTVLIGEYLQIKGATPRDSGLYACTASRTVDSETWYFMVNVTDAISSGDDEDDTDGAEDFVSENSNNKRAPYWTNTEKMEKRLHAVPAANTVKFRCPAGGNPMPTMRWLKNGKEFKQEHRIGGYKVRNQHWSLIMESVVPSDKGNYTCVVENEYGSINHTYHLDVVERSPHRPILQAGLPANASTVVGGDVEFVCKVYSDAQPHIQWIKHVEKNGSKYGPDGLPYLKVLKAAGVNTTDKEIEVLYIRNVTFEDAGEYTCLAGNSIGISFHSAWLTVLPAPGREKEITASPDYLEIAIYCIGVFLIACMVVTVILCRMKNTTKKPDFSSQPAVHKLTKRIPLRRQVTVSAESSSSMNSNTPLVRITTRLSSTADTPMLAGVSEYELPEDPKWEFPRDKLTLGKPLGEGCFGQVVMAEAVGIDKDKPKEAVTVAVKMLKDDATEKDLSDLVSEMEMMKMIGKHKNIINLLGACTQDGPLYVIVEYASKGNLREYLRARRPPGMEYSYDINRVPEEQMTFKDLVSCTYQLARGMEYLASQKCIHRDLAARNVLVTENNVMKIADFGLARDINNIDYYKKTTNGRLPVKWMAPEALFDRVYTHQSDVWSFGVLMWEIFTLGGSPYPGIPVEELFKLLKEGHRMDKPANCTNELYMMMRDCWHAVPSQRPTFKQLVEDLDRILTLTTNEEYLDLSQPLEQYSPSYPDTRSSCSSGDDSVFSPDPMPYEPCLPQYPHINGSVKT
UniProt P22607, whole entry, looked up: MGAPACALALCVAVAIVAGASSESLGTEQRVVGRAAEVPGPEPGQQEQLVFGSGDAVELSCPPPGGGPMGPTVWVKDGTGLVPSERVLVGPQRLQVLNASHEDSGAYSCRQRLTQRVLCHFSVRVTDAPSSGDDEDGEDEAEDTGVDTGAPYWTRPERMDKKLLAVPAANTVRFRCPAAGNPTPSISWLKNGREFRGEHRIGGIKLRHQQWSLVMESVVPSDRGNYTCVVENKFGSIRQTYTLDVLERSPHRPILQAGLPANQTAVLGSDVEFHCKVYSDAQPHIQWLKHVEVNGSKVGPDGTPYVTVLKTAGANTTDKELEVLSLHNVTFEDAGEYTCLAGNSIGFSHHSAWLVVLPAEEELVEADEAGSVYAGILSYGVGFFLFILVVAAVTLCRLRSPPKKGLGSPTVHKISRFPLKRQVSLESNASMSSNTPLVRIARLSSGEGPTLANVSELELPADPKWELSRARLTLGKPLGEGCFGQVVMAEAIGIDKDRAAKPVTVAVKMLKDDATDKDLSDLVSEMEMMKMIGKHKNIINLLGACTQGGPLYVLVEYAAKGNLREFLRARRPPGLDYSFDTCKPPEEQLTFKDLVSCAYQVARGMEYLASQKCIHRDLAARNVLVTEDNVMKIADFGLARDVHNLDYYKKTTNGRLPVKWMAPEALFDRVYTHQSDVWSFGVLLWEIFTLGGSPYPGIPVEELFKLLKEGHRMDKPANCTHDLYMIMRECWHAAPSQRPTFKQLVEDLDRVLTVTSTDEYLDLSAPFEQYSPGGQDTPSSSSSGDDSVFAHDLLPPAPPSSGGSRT
UniProt P06241, whole entry, looked up: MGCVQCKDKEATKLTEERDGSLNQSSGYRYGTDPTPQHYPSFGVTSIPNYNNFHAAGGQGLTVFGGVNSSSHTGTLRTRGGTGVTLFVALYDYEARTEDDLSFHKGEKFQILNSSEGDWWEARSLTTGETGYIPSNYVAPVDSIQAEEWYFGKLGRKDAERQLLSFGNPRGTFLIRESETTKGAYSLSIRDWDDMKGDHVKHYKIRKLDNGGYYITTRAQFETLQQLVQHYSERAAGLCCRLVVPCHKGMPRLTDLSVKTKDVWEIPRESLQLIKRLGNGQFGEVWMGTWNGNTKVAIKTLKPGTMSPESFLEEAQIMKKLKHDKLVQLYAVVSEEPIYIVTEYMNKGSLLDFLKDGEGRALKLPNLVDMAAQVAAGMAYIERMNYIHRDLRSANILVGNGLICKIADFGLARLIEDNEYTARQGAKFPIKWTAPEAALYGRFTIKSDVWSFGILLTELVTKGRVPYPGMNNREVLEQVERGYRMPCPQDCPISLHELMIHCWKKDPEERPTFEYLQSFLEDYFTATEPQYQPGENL
UniProt P49840: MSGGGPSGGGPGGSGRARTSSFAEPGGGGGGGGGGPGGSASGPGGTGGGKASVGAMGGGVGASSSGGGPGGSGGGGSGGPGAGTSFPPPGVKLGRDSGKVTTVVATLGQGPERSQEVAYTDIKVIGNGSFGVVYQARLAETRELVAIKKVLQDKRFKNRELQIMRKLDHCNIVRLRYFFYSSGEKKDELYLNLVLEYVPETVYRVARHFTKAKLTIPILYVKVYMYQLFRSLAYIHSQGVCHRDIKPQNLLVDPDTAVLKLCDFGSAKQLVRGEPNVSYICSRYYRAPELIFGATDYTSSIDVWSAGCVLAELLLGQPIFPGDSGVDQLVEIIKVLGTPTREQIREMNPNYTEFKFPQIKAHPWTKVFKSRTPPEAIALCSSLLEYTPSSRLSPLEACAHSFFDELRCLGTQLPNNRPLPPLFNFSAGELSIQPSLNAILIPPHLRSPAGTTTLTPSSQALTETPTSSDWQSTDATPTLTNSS

Columns and labels:
Assay in all cases: kinase-Nluc reporter destabilization hit call (1 = scored as downregulated) (binary); higher = compound decreases kinase abundance
Conditions in all cases: K562; 2-18 h
EGFR = EGFR (UniProt P00533)
EGFR_G719S = EGFR_G719S (UniProt P00533)
EGFR_G719S_T790M = EGFR_G719S_T790M (UniProt P00533)
EGFR_L718V = EGFR_L718V (UniProt P00533)
EGFR_L858R = EGFR_L858R (UniProt P00533)
EGFR_L861Q = EGFR_L861Q (UniProt P00533)
EGFR_T790M = EGFR_T790M (UniProt P00533)
EPHA2 = EPHA2 (UniProt P29317)
ERBB3 = ERBB3 (UniProt P21860)
[1] = target: ERBB4_R711C (clone: ERBB4_mut) (UniProt Q15303)
ERN1 = ERN1 (UniProt O75460)
FGFR1 = FGFR1 (UniProt P11362)
FGFR2 = FGFR2 (UniProt P21802)
FGFR3 = FGFR3 (UniProt P22607)
FGR = FGR (UniProt P09769)
FLT3 = FLT3 (UniProt P36888)
FYN = FYN (UniProt P06241)
GSK3A = GSK3A (UniProt P49840)
HER2 = HER2 (UniProt P04626)
INSRR = INSRR (UniProt P14616)

Measured: kinase-Nluc reporter destabilization hit call

COc1cc(-c2cn[nH]c2)ccc1C(=O)Nc1ccc2c(c1)CCNCC2 (10 µM)
inactive: EGFR 0 | EGFR_G719S 0 | EGFR_G719S_T790M 0 | EGFR_L718V 0 | EGFR_L858R 0 | EGFR_L861Q 0 | EGFR_T790M 0 | EPHA2 = 0 | ERBB3 = 0 | [1] 0 | ERN1 = 0 | FGFR1 = 0 | FGFR2 = 0 | FGFR3 = 0 | FGR 0 | FLT3 = 0 | FYN 0 | GSK3A 0 | HER2 = 0 | INSRR 0

O=C1NC(=Nc2c(Cl)cccc2Cl)S/C1=C\c1ccc2nccnc2c1 (2.5 µM)
inactive: EGFR 0 | EGFR_G719S 0 | EGFR_G719S_T790M 0 | EGFR_L718V 0 | EGFR_L858R 0 | EGFR_L861Q 0 | EGFR_T790M 0 | EPHA2 = 0 | ERBB3 = 0 | [1] 0 | ERN1 = 0 | FGFR1 = 0 | FGFR2 = 0 | FGFR3 = 0 | FGR 0 | FLT3 = 0 | FYN 0 | GSK3A 0 | HER2 = 0 | INSRR 0

COc1cc2ncnc(-n3nc(-c4ccccn4)nc3N)c2cc1OC (10 µM)
inactive: EGFR 0 | EGFR_G719S 0 | EGFR_G719S_T790M 0 | EGFR_L718V 0 | EGFR_L858R 0 | EGFR_L861Q 0 | EGFR_T790M 0 | EPHA2 = 0 | ERBB3 = 0 | [1] 0 | ERN1 = 0 | FGFR1 = 0 | FGFR2 = 0 | FGFR3 = 0 | FGR 0 | FLT3 = 0 | FYN 0 | GSK3A 0 | HER2 = 0 | INSRR 0

O=C(O)c1cc(=O)c2c(OCC(O)COc3cccc4oc(C(=O)O)cc(=O)c34)cccc2o1 [Cromolyn (sodium)] (10 µM)
inactive: EGFR 0 | EGFR_G719S 0 | EGFR_G719S_T790M 0 | EGFR_L718V 0 | EGFR_L858R 0 | EGFR_L861Q 0 | EGFR_T790M 0 | EPHA2 = 0 | ERBB3 = 0 | [1] 0 | ERN1 = 0 | FGFR1 = 0 | FGFR2 = 0 | FGFR3 = 0 | FGR 0 | FLT3 = 0 | FYN 0 | GSK3A 0 | HER2 = 0 | INSRR 0

CC(C)N1CCN(c2ccc(Nc3ncc4cc5n(c4n3)C3(CCCCC3)CNC5=O)nc2)CC1 [Lerociclib (dihydrochloride)] (2 µM)
inactive: EGFR 0 | EGFR_G719S 0 | EGFR_G719S_T790M 0 | EGFR_L718V 0 | EGFR_L858R 0 | EGFR_L861Q 0 | EGFR_T790M 0 | EPHA2 = 0 | ERBB3 = 0 | [1] 0 | ERN1 = 0 | FGFR1 = 0 | FGFR2 = 0 | FGFR3 = 0 | FGR 0 | FLT3 = 0 | FYN 0 | GSK3A 0 | HER2 = 0 | INSRR 0

Oc1ccc(/C=C/c2cc(O)cc(F)c2)cc1 [Resveratrol analog 1] (10 µM)
inactive: EGFR 0 | EGFR_G719S 0 | EGFR_G719S_T790M 0 | EGFR_L718V 0 | EGFR_L858R 0 | EGFR_L861Q 0 | EGFR_T790M 0 | EPHA2 = 0 | ERBB3 = 0 | [1] 0 | ERN1 = 0 | FGFR1 = 0 | FGFR2 = 0 | FGFR3 = 0 | FGR 0 | FLT3 = 0 | FYN 0 | GSK3A 0 | HER2 = 0 | INSRR 0

O=C(Nc1nc2ccc(NC(=O)C34CC5CC(CC(C5)C3)C4)cc2s1)c1ccccc1 (10 µM)
inactive: EGFR 0 | EGFR_G719S 0 | EGFR_G719S_T790M 0 | EGFR_L718V 0 | EGFR_L858R 0 | EGFR_L861Q 0 | EGFR_T790M 0 | EPHA2 = 0 | ERBB3 = 0 | [1] 0 | ERN1 = 0 | FGFR1 = 0 | FGFR2 = 0 | FGFR3 = 0 | FGR 0 | FLT3 = 0 | FYN 0 | GSK3A 0 | HER2 = 0 | INSRR 0

Pulled by structure from above (2):
Oc1ccc(/C=C/c2cc(O)cc(F)c2)cc1 [Resveratrol analog 1] (10 µM)
inactive: EGFR 0 | EGFR_G719S 0 | EGFR_G719S_T790M 0 | EGFR_L718V 0 | EGFR_L858R 0 | EGFR_L861Q 0 | EGFR_T790M 0 | EPHA2 = 0 | ERBB3 = 0 | [1] 0 | ERN1 = 0 | FGFR1 = 0 | FGFR2 = 0 | FGFR3 = 0 | FGR 0 | FLT3 = 0 | FYN 0 | GSK3A 0 | HER2 = 0 | INSRR 0

COc1cc(-c2cn[nH]c2)ccc1C(=O)Nc1ccc2c(c1)CCNCC2 (10 µM)
inactive: EGFR 0 | EGFR_G719S 0 | EGFR_G719S_T790M 0 | EGFR_L718V 0 | EGFR_L858R 0 | EGFR_L861Q 0 | EGFR_T790M 0 | EPHA2 = 0 | ERBB3 = 0 | [1] 0 | ERN1 = 0 | FGFR1 = 0 | FGFR2 = 0 | FGFR3 = 0 | FGR 0 | FLT3 = 0 | FYN 0 | GSK3A 0 | HER2 = 0 | INSRR 0

Following part

C=CC(=O)Nc1cc(-n2c(=O)ccc3cnc4ccc(-c5ccc(NS(C)(=O)=O)cc5)cc4c32)ccc1C (10 µM)
inactive: EGFR 0 | EGFR_G719S 0 | EGFR_G719S_T790M 0 | EGFR_L718V 0 | EGFR_L858R 0 | EGFR_L861Q 0 | EGFR_T790M 0 | EPHA2 = 0 | ERBB3 = 0 | [1] 0 | ERN1 = 0 | FGFR1 = 0 | FGFR2 = 0 | FGFR3 = 0 | FGR 0 | FLT3 = 0 | FYN 0 | GSK3A 0 | HER2 = 0 | INSRR 0

CC(C)S(=O)(=O)c1ccc2nccc(Nc3ccc4scnc4c3)c2c1 (10 µM)
inactive: EGFR 0 | EGFR_G719S 0 | EGFR_G719S_T790M 0 | EGFR_L718V 0 | EGFR_L858R 0 | EGFR_L861Q 0 | EGFR_T790M 0 | EPHA2 = 0 | ERBB3 = 0 | [1] 0 | ERN1 = 0 | FGFR1 = 0 | FGFR2 = 0 | FGFR3 = 0 | FGR 0 | FLT3 = 0 | FYN 0 | GSK3A 0 | HER2 = 0 | INSRR 0

N#Cc1ccnc(Nc2cc(C3CCN(C4COC4)CC3)cc(N3CCC(F)(F)C3)n2)c1 (2.5 µM)
inactive: EGFR 0 | EGFR_G719S 0 | EGFR_G719S_T790M 0 | EGFR_L718V 0 | EGFR_L858R 0 | EGFR_L861Q 0 | EGFR_T790M 0 | EPHA2 = 0 | ERBB3 = 0 | [1] 0 | ERN1 = 0 | FGFR1 = 0 | FGFR2 = 0 | FGFR3 = 0 | FGR 0 | FLT3 = 0 | FYN 0 | GSK3A 0 | HER2 = 0 | INSRR 0

CC(C)(O)[C@H]1CC[C@H](Nc2ccc3ncc(-c4cccc(C(F)(F)F)c4)n3n2)CC1 (10 µM)
inactive: EGFR 0 | EGFR_G719S 0 | EGFR_G719S_T790M 0 | EGFR_L718V 0 | EGFR_L858R 0 | EGFR_L861Q 0 | EGFR_T790M 0 | EPHA2 = 0 | ERBB3 = 0 | [1] 0 | ERN1 = 0 | FGFR1 = 0 | FGFR2 = 0 | FGFR3 = 0 | FGR 0 | FLT3 = 0 | FYN 0 | GSK3A 0 | HER2 = 0 | INSRR 0

Cn1cc(C2=C(c3cn(CCCSC(=N)N)c4ccccc34)C(=O)NC2=O)c2ccccc21 [Ro 31-8220 (mesylate)] (2.5 µM)
inactive: EGFR 0 | EGFR_G719S 0 | EGFR_G719S_T790M 0 | EGFR_L718V 0 | EGFR_L858R 0 | EGFR_L861Q 0 | EGFR_T790M 0 | EPHA2 = 0 | ERBB3 = 0 | [1] 0 | ERN1 = 0 | FGFR1 = 0 | FGFR2 = 0 | FGFR3 = 0 | FGR 0 | FLT3 = 0 | FYN 0 | GSK3A 0 | HER2 = 0 | INSRR 0

CC(C)CNc1ccnc(NCc2csc(-c3ccccc3)n2)n1 [KHS101 hydrochloride] (2.5 µM)
inactive: EGFR 0 | EGFR_G719S 0 | EGFR_G719S_T790M 0 | EGFR_L718V 0 | EGFR_L858R 0 | EGFR_L861Q 0 | EGFR_T790M 0 | EPHA2 = 0 | ERBB3 = 0 | [1] 0 | ERN1 = 0 | FGFR1 = 0 | FGFR2 = 0 | FGFR3 = 0 | FGR 0 | FLT3 = 0 | FYN 0 | GSK3A 0 | HER2 = 0 | INSRR 0

O=C(Nc1cccc(C(F)(F)F)c1)c1cccc2cc(Oc3cc(CO)ncn3)ccc12 (10 µM)
inactive: EGFR 0 | EGFR_G719S 0 | EGFR_G719S_T790M 0 | EGFR_L718V 0 | EGFR_L858R 0 | EGFR_L861Q 0 | EGFR_T790M 0 | EPHA2 = 0 | ERBB3 = 0 | [1] 0 | ERN1 = 0 | FGFR1 = 0 | FGFR2 = 0 | FGFR3 = 0 | FGR 0 | FLT3 = 0 | FYN 0 | GSK3A 0 | HER2 = 0 | INSRR 0

CN(C)CCC=C1c2ccccc2CCc2ccccc21 [Amitriptyline (hydrochloride)] (2.5 µM)
inactive: EGFR 0 | EGFR_G719S 0 | EGFR_G719S_T790M 0 | EGFR_L718V 0 | EGFR_L858R 0 | EGFR_L861Q 0 | EGFR_T790M 0 | EPHA2 = 0 | ERBB3 = 0 | [1] 0 | ERN1 = 0 | FGFR1 = 0 | FGFR2 = 0 | FGFR3 = 0 | FGR 0 | FLT3 = 0 | FYN 0 | GSK3A 0 | HER2 = 0 | INSRR 0

CC(C)c1cc(/C=C(\C#N)C(=O)NCCCc2ccccc2)cc(C(C)C)c1O (10 µM)
inactive: EGFR 0 | EGFR_G719S 0 | EGFR_G719S_T790M 0 | EGFR_L718V 0 | EGFR_L858R 0 | EGFR_L861Q 0 | EGFR_T790M 0 | EPHA2 = 0 | ERBB3 = 0 | [1] 0 | ERN1 = 0 | FGFR1 = 0 | FGFR2 = 0 | FGFR3 = 0 | FGR 0 | FLT3 = 0 | FYN 0 | GSK3A 0 | HER2 = 0 | INSRR 0

Cn1cc2cc(C(F)(F)c3nnc4ccc(-c5cnn(C6CC6)c5)nn34)c(F)cc2n1 [Bozitinib] (10 µM)
inactive: EGFR 0 | EGFR_G719S 0 | EGFR_G719S_T790M 0 | EGFR_L718V 0 | EGFR_L858R 0 | EGFR_L861Q 0 | EGFR_T790M 0 | EPHA2 = 0 | ERBB3 = 0 | [1] 0 | ERN1 = 0 | FGFR1 = 0 | FGFR2 = 0 | FGFR3 = 0 | FGR 0 | FLT3 = 0 | FYN 0 | GSK3A 0 | HER2 = 0 | INSRR 0
